Data: the supplement of paper PMC7661543
The effect of the compound repeats well; differences between the knockouts mostly do not.

Tested on: SKBR3
Experiment: relative cell number vs DMSO control (72 h) (% of DMSO); higher = less growth inhibition (more cells)
Procedure: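 QMAP-Seq: a pool of 5 breast cancer cell lines (ZR-75-1, SKBR3, HCC-38, MDA-MB-231, BT-20), each carrying 12 doxycycline-inducible Cas9 sgRNA perturbations (11 knockouts plus non-targeting sgNT), was treated with compounds for 72 h at four 10-fold doses (10 nM-10 uM or 1 nM-1 uM range). Barcodes were amplified and sequenced, and cell number was interpolated from 293T spike-in standard curves. The result is expressed as % of the median of DMSO wells. Two biological replicates.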

C[C@]12CC[C@@H]3c4ccc(O)cc4C[C@@H](CCCCCCCCC[S+]([O-])CCCC(F)(F)C(F)(F)F)[C@H]3[C@@H]1CC[C@@H]2O (some centres not stated) [Fulvestrant]
Settings | relative cell number
sgRNA knockout: sgATF3, 10 nM | 93
sgRNA knockout: sgATF3, 100 nM | 63.6
sgRNA knockout: sgATF3, 1000 nM | 78.6
sgRNA knockout: sgATF3, 10000 nM | 88.9
sgRNA knockout: sgATF4, 10 nM | 80.8
sgRNA knockout: sgATF4, 100 nM | 91.7
sgRNA knockout: sgATF4, 1000 nM | 97.7
sgRNA knockout: sgATF4, 10000 nM | 75.3
sgRNA knockout: sgATF6, 10 nM | 82.7
sgRNA knockout: sgATF6, 100 nM | 95.1
sgRNA knockout: sgATF6, 1000 nM | 101.7
sgRNA knockout: sgATF6, 10000 nM | 79.2
sgRNA knockout: sgATG7, 10 nM | 101
sgRNA knockout: sgATG7, 100 nM | 72.2
sgRNA knockout: sgATG7, 1000 nM | 90.3
sgRNA knockout: sgATG7, 10000 nM | 87.59
sgRNA knockout: sgERN1, 10 nM | 94.9
sgRNA knockout: sgERN1, 100 nM | 94.7
sgRNA knockout: sgERN1, 1000 nM | 99.1
sgRNA knockout: sgERN1, 10000 nM | 96.6
sgRNA knockout: sgHSF1, 10 nM | 79.8
sgRNA knockout: sgHSF1, 100 nM | 79.1
sgRNA knockout: sgHSF1, 1000 nM | 77.3
sgRNA knockout: sgHSF1, 10000 nM | 71.3
sgRNA knockout: sgHSF2, 10 nM | 97.2
sgRNA knockout: sgHSF2, 100 nM | 89.3
sgRNA knockout: sgHSF2, 1000 nM | 94.2
sgRNA knockout: sgHSF2, 10000 nM | 85.6
sgRNA knockout: sgKEAP1, 10 nM | 81.6
sgRNA knockout: sgKEAP1, 100 nM | 63.9
sgRNA knockout: sgKEAP1, 1000 nM | 73.9
sgRNA knockout: sgKEAP1, 10000 nM | 79.7
sgRNA knockout: sgNFE2L2, 10 nM | 87.6
sgRNA knockout: sgNFE2L2, 100 nM | 87.2
sgRNA knockout: sgNFE2L2, 1000 nM | 89.3
sgRNA knockout: sgNFE2L2, 10000 nM | 79
sgRNA knockout: sgSLC35F2, 10 nM | 89.7
sgRNA knockout: sgSLC35F2, 100 nM | 81.2
sgRNA knockout: sgSLC35F2, 1000 nM | 70
sgRNA knockout: sgSLC35F2, 10000 nM | 98.4
sgRNA knockout: sgXBP1, 10 nM | 84.4
sgRNA knockout: sgXBP1, 100 nM | 73.8
sgRNA knockout: sgXBP1, 1000 nM | 87.2
sgRNA knockout: sgXBP1, 10000 nM | 73.8

CC[C@H](C)C(=O)O[C@H]1C[C@@H](C)C=C2C=C[C@H](C)[C@H](CC[C@@H]3C[C@@H](O)CC(=O)O3)[C@H]21 [Lovastatin]
Settings | relative cell number
sgRNA knockout: sgATF3, 10 nM | 108
sgRNA knockout: sgATF3, 100 nM | 91.7
sgRNA knockout: sgATF3, 1000 nM | 103.75
sgRNA knockout: sgATF3, 10000 nM | 82.9
sgRNA knockout: sgATF4, 10 nM | 108
sgRNA knockout: sgATF4, 100 nM | 75.9
sgRNA knockout: sgATF4, 1000 nM | 90
sgRNA knockout: sgATF4, 10000 nM | 84.7
sgRNA knockout: sgATF6, 10 nM | 87.2
sgRNA knockout: sgATF6, 100 nM | 71.2
sgRNA knockout: sgATF6, 1000 nM | 88.6
sgRNA knockout: sgATF6, 10000 nM | 85.2
sgRNA knockout: sgATG7, 10 nM | 95.9
sgRNA knockout: sgATG7, 100 nM | 82.69
sgRNA knockout: sgATG7, 1000 nM | 108
sgRNA knockout: sgATG7, 10000 nM | 80.6
sgRNA knockout: sgERN1, 10 nM | 107
sgRNA knockout: sgERN1, 100 nM | 93.2
sgRNA knockout: sgERN1, 1000 nM | 103
sgRNA knockout: sgERN1, 10000 nM | 89.3
sgRNA knockout: sgHSF1, 10 nM | 103
sgRNA knockout: sgHSF1, 100 nM | 76.4
sgRNA knockout: sgHSF1, 1000 nM | 86
sgRNA knockout: sgHSF1, 10000 nM | 84.1
sgRNA knockout: sgHSF2, 10 nM | 99
sgRNA knockout: sgHSF2, 100 nM | 69.1
sgRNA knockout: sgHSF2, 1000 nM | 85.1
sgRNA knockout: sgHSF2, 10000 nM | 74.9
sgRNA knockout: sgKEAP1, 10 nM | 98.1
sgRNA knockout: sgKEAP1, 100 nM | 78
sgRNA knockout: sgKEAP1, 1000 nM | 93
sgRNA knockout: sgKEAP1, 10000 nM | 71.2
sgRNA knockout: sgNFE2L2, 10 nM | 84.3
sgRNA knockout: sgNFE2L2, 100 nM | 83.2
sgRNA knockout: sgNFE2L2, 1000 nM | 94.9
sgRNA knockout: sgNFE2L2, 10000 nM | 86.6
sgRNA knockout: sgSLC35F2, 10 nM | 93.4
sgRNA knockout: sgSLC35F2, 100 nM | 85
sgRNA knockout: sgSLC35F2, 1000 nM | 109
sgRNA knockout: sgSLC35F2, 10000 nM | 77.9
sgRNA knockout: sgXBP1, 10 nM | 110.8
sgRNA knockout: sgXBP1, 100 nM | 83.3
sgRNA knockout: sgXBP1, 1000 nM | 114
sgRNA knockout: sgXBP1, 10000 nM | 98.2

O=C(O)CCCc1ccc(N(CCCl)CCCl)cc1 [Chlorambucil]
Settings | relative cell number
sgRNA knockout: sgATF3, 10 nM | 121
sgRNA knockout: sgATF3, 100 nM | 96
sgRNA knockout: sgATF3, 1000 nM | 122
sgRNA knockout: sgATF3, 10000 nM | 67.5
sgRNA knockout: sgATF4, 10 nM | 81
sgRNA knockout: sgATF4, 100 nM | 85.5
sgRNA knockout: sgATF4, 1000 nM | 88.9
sgRNA knockout: sgATF4, 10000 nM | 75.9
sgRNA knockout: sgATF6, 10 nM | 86.3
sgRNA knockout: sgATF6, 100 nM | 89.8
sgRNA knockout: sgATF6, 1000 nM | 102
sgRNA knockout: sgATF6, 10000 nM | 61.9
sgRNA knockout: sgATG7, 10 nM | 113
sgRNA knockout: sgATG7, 100 nM | 92.8
sgRNA knockout: sgATG7, 1000 nM | 85.1
sgRNA knockout: sgATG7, 10000 nM | 62.1
sgRNA knockout: sgERN1, 10 nM | 108
sgRNA knockout: sgERN1, 100 nM | 95.6
sgRNA knockout: sgERN1, 1000 nM | 98
sgRNA knockout: sgERN1, 10000 nM | 86.5
sgRNA knockout: sgHSF1, 10 nM | 81.3
sgRNA knockout: sgHSF1, 100 nM | 83.4
sgRNA knockout: sgHSF1, 1000 nM | 67.69
sgRNA knockout: sgHSF1, 10000 nM | 65.1
sgRNA knockout: sgHSF2, 10 nM | 101
sgRNA knockout: sgHSF2, 100 nM | 70.3
sgRNA knockout: sgHSF2, 1000 nM | 78.3
sgRNA knockout: sgHSF2, 10000 nM | 76.5
sgRNA knockout: sgKEAP1, 10 nM | 81.7
sgRNA knockout: sgKEAP1, 100 nM | 87.07
sgRNA knockout: sgKEAP1, 1000 nM | 82.2
sgRNA knockout: sgKEAP1, 10000 nM | 64.1
sgRNA knockout: sgNFE2L2, 10 nM | 87.5
sgRNA knockout: sgNFE2L2, 100 nM | 94.5
sgRNA knockout: sgNFE2L2, 1000 nM | 75.1
sgRNA knockout: sgNFE2L2, 10000 nM | 77.7
sgRNA knockout: sgSLC35F2, 10 nM | 90.5
sgRNA knockout: sgSLC35F2, 100 nM | 79.4
sgRNA knockout: sgSLC35F2, 1000 nM | 83.03
sgRNA knockout: sgSLC35F2, 10000 nM | 61.6
sgRNA knockout: sgXBP1, 10 nM | 95.3
sgRNA knockout: sgXBP1, 100 nM | 89.7
sgRNA knockout: sgXBP1, 1000 nM | 77.9
sgRNA knockout: sgXBP1, 10000 nM | 72.6
